Values from PubChem BioAssay AID1259279 (Sanger Institute, 2017)

Aim: 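Find kinases whose loss works with colorectal cancer drugs to kill cells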 (primary screen)
Cell system: LS180 human colorectal cancer cells
Reagent: siRNA pool against human genes
Treatment: anchor drug BYL719 at 1 µM, cetuximab at 5 µg/ml or trametinib at 10 nM, or DMSO vehicle only
Measured: 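Cell viability versus a non-targeting pool, as a fraction and as a robust z-score from replicate means, plus a synergy score for each of three drugs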
Reading the numbers: viability z-score, no drug: higher = more viable cells after knock-down
Call rule: 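a knock-down is called active, meaning essential, if its viability z-score in vehicle alone falls below -3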
Meaning of the calls: active = essential (knock-down alone cuts viability); inactive = no change without drug
Here is an unselected part of 794 deposited reagents. In the full data, 11 (1.4%) got an active call. 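Calls reflect knock-down alone in the vehicle arm, not drug synergy.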 Unmarked entries are inactive. Further read-outs or replicates are left out here. Not stated in the record: the amount of reagent, the time to read-out.

BMAL1 [SID134314841] — viability z-score, no drug: -0.137
MAST4 [SID135625002] — viability z-score, no drug: 0.86
PIK3C2G [SID152155956] — viability z-score, no drug: -2.35
STK16 [SID152154415] — viability z-score, no drug: 0.86
STKLD1 [SID152151495] — viability z-score, no drug: -0.834
MAPKAPK3 [SID56478946] — viability z-score, no drug: -1.3
PGK2 [SID135621248] — viability z-score, no drug: 0.86
PAK5 [SID56478749] — viability z-score, no drug: 0.074
ETNK1 [SID152152739] — viability z-score, no drug: -0.214
KHK [SID135621242] — viability z-score, no drug: -0.71
CDKL3 [SID56478871] — viability z-score, no drug: 0.86
TPD52L3 [SID56479192] — viability z-score, no drug: 0.656

2 entries from above, reformatted:
{"gene":"STK16","PubChem SID":"SID152154415","viability z-score, no drug":0.86}
{"gene":"STKLD1","PubChem SID":"SID152151495","viability z-score, no drug":-0.834}
